Values quoted from earlier work as cited in patent US11179390B2, “Subcutaneous administration of a P2Y12 receptor antagonist” (Idorsia Pharmaceuticals Ltd, priority 2017, dated 2021).
Some entries share one result that the patent states for a list of compounds.

System: platelet function
Details: oral administration; cited from earlier work

Q: With CCCSc1nc(N[C@@H]2C[C@H]2c2ccc(F)c(F)c2)c2nnn([C@@H]3C[C@H](OCCO)[C@@H](O)[C@H]3O)c2n1 [Ticagrelor, (1S,2S,3R,5S)-3-[7-[(1R,2S)-2-(3,4-difluorophenyl)cyclopropylamino]-5-(propylthio)-3H-[1,2,3]triazolo[4,5-d]pyrimidin-3-yl]-5-(2-hydroxyethoxy)cyclopentane-1,2-diol] as the molecule, how does the “time to inhibit platelet function” value read?
A: Its value is “less than 1 hour”.

Q: With CC(=O)Oc1cc2c(s1)CCN(C(C(=O)C1CC1)c1ccccc1F)C2 (centres unmarked) [prasugrel] as the molecule, how does the “time to inhibit platelet function” value read?
A: Its value is “less than 1 hour”.
